Results deposited as PubChem BioAssay AID1224830 (NIAID, 2016)

Screen: 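Genes whose knock-down alters the TNF-alpha reporter response to LPS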 (primary screen)
System: human THP-1 monocytic leukaemia cells, TNF dual-luciferase reporter clone, PMA-differentiated to macrophage-like cells
Reagent: siRNA pool against human genes, 50 nM
Time to read-out: LPS for 4 h, given about 3 days after siRNA transfection
Treatment: bacterial LPS (TLR4 ligand), 10 ng/ml
Read-out: 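TNF firefly reporter luminescence divided by renilla, normalised to the plate median, then turned into a robust z-score for each replicate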
Direction: TNF reporter robust z-score: higher = stronger TNF reporter response to LPS
Rule for the call: 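Each well counts as active if its z-score is over 2.8 or under -1.5; controls are left without a call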
Here is an unselected part of about 18,000 reagents. Of all reagents, about 2,900 (16%) were called active. 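Calls are made per well; low scores hint the gene aids the LPS response, high scores that it dampens it.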 Repeated entries: four replicate wells of each siRNA pool.

target gene	TNF reporter robust z-score	outcome
LSM14A	1.11	inactive
LSM14A	1	inactive
LSM14A	-0.47	inactive
LSM14A	0.76	inactive
KRTAP4-11	-0.62	inactive
KRTAP4-11	-0.71	inactive
KRTAP4-11	-0.54	inactive
KRTAP4-11	-0.67	inactive
APCDD1L	-0.11	inactive
APCDD1L	0.14	inactive
APCDD1L	-1.23	inactive
APCDD1L	-0.34	inactive
C20orf204	2.16	inactive
C20orf204	-0.56	inactive
C20orf204	-1.38	inactive
C20orf204	-0.92	inactive
OR51A2	-0.73	inactive
OR51A2	-0.92	inactive
OR51A2	-0.69	inactive
OR51A2	-1.09	inactive
GXYLT2	1.22	inactive
GXYLT2	1.71	inactive
GXYLT2	-0.1	inactive
GXYLT2	1.37	inactive
CCNA2	-0.89	inactive
CCNA2	-0.24	inactive
CCNA2	0.5	inactive
CCNA2	0.44	inactive
NRF1	0.6	inactive
NRF1	0.62	inactive
NRF1	0.41	inactive
NRF1	0.91	inactive
CCDC181	0.32	inactive
CCDC181	0.92	inactive
CCDC181	2.02	inactive
CCDC181	1.58	inactive
MID2	-1.88	active
MID2	-0.06	inactive
MID2	-1.44	inactive
MID2	-0.85	inactive
ATXN7	1.14	inactive
ATXN7	2.31	inactive
ATXN7	1.52	inactive
ATXN7	1.81	inactive
CATSPER3	0.12	inactive
CATSPER3	-0.65	inactive
CATSPER3	-0.61	inactive
CATSPER3	-0.29	inactive
ANKRD13C	-0.22	inactive
ANKRD13C	0.31	inactive
ANKRD13C	1.33	inactive
ANKRD13C	0.67	inactive
ITCH	-0.5	inactive
ITCH	-0.23	inactive
ITCH	0.41	inactive
ITCH	0.78	inactive
PELP1	-0.38	inactive
PELP1	0.83	inactive
PELP1	-0.51	inactive
PELP1	0.53	inactive
DNER	-0.12	inactive
DNER	0.8	inactive
DNER	-0.34	inactive
DNER	0.3	inactive
AKAP14	-1.06	inactive
AKAP14	-0.39	inactive
AKAP14	-0.16	inactive
AKAP14	-0.03	inactive
ARPC1A	-0.37	inactive
ARPC1A	-0.61	inactive
ARPC1A	-0.73	inactive
ARPC1A	-1	inactive
SLC25A42	-0.17	inactive
SLC25A42	-0.95	inactive
SLC25A42	0.01	inactive
SLC25A42	-0.58	inactive
TUSC3	-0.52	inactive
TUSC3	0.43	inactive
TUSC3	0.44	inactive
TUSC3	0.45	inactive
LSS	-0.02	inactive
LSS	-0.24	inactive
LSS	-0.56	inactive
LSS	0.18	inactive
ARHGAP18	0.7	inactive
ARHGAP18	-1.07	inactive
ARHGAP18	-1.01	inactive
ARHGAP18	-0.11	inactive
HTR3C	-0.49	inactive
HTR3C	-0.66	inactive
HTR3C	-0.27	inactive
HTR3C	0.04	inactive
GH2	-0.77	inactive
GH2	-0.81	inactive
GH2	-0.91	inactive
CIMAP1C	2.76	inactive
CIMAP1C	1.63	inactive
CIMAP1C	1.35	inactive
CIMAP1C	1.08	inactive
HMGN2	-1.21	inactive
HMGN2	-1.64	active
HMGN2	-1.56	active
HMGN2	-1.74	active
PRDM8	2.4	inactive
PRDM8	2.34	inactive
PRDM8	1.15	inactive
PRDM8	1.73	inactive
NPIPA1	0.14	inactive
NPIPA1	0.62	inactive
NPIPA1	0.49	inactive

Entries listed so far whose gene name begins with S or s:
target gene	TNF reporter robust z-score	outcome
SLC25A42	-0.17	inactive
SLC25A42	-0.95	inactive
SLC25A42	0.01	inactive
SLC25A42	-0.58	inactive
